This test has as its target T1, GST-dSNAP-25 (Drosophila) (UniProt P36975).
T1 sequence: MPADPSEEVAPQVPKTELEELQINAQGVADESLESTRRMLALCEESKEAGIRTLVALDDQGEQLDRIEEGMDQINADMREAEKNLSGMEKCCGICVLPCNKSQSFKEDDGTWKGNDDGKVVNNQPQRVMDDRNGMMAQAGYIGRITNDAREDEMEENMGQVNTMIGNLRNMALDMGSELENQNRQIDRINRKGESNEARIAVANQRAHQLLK
In words: pull-down; 0.5 mg GST fusion or GST on 120 uL glutathione beads, incubated with pre-cleared S2 cell lysate (PLC or NP40 lysis buffer, 0.1% gelatin, 0.1% BSA); washes 50 mM HEPES pH 7.5, 150 mM NaCl, 2 mM EDTA; western blot; only the target purified. On the technique in general: Immunoblotting shows a protein as a band on a membrane.

No constants are given. Whether binding was seen depends on the method and setting. In cells and extracts the contact can be indirect. Sequences can lack the tags named with a protein.

On to “dEHD1, endogenous (Drosophila (endogenous in S2 cells))”, for which the binding result was “no binding (tested: 0.5 mg on 120 uL beads)”.
Regarding “DAP160, endogenous (Drosophila (endogenous in S2 cells))”, the binding result was “no binding (tested: 0.5 mg on 120 uL beads)”.

The values are drawn from article PMC3953403, “Drosophila SNAP-29 Is an Essential SNARE That Binds Multiple Proteins Involved in Membrane Traffic” (PLoS ONE, 2014).
